Some results were stated once for a whole list of compounds, not compound by compound.
Legend:
[1] = test system: Septoria tritici; assay: In vivo preventive test on Septoria tritici (leaf spot on wheat); conditions: 100 ppm of active ingredient; wheat plants, preventive spray, evaluated 24 days after inoculation
[2] = test system: Pyrenophora teres; assay: In vivo preventive test on Pyrenophora teres (net blotch on barley); conditions: 100 ppm of active ingredient; barley plants, preventive spray, evaluated 14 days after inoculation
[3] = test system: Uromyces appendiculatus; assay: In vivo preventive test on Uromyces appendiculatus (bean rust); conditions: 100 ppm of active ingredient; bean plants, preventive spray, evaluated 11 days after inoculation
Method: (§1) Example: In Vivo Preventive Test on Uromyces appendiculatus (Bean Rust) [table] The active ingredients are made soluble and homogenized in a mixture of Dimethyl sulfoxide/Acetone/Tween® 80 and then diluted in water to the desired concentration. The young plants of bean are treated by spraying the active ingredient prepared as described above. Control plants are treated only with an aqueous solution of Acetone/Dimethyl sulfoxide/Tween® 80. After 24 hours, the plants are contaminated by spraying the leaves with an aqueous suspension of Uromyces appendiculatus spores. The contaminated bean plants are incubated for 24 hours at 20° C. and at 100% relative humidity and then for 10 days at 20° C. and at 70-80% relative humidity. The test is evaluated 11 days after the inoculation. 0% means an efficacy which corresponds to that of the control plants while an efficacy of 100% means that no disease is observed.

[4] = test system: Sphaerotheca fuliginea; assay: In vivo preventive test on Sphaerotheca fuliginea (powdery mildew on cucurbits); conditions: 100 ppm of active ingredient; gherkin plants, preventive spray, evaluated 15 days after inoculation
[5] = test system: Alternaria brassicae; assay: In vivo preventive test on Alternaria brassicae (leaf spot on radish); conditions: 100 ppm of active ingredient; radish plants, preventive spray, evaluated 6 days after inoculation
[6] = test system: Puccinia recondita; assay: In vivo preventive test on Puccinia recondita (brown rust on wheat); conditions: 100 ppm of active ingredient; wheat plants, preventive spray, evaluated 11 days after inoculation
Method: as §1, with “Puccinia recondita (Brown Rust on Wheat)” for “Uromyces appendiculatus (Bean Rust)”, “wheat” for “bean”, “Puccinia recondita” for “Uromyces appendiculatus”

[7] = test system: Botrytis cinerea; assay: In vivo preventive test on Botrytis cinerea (grey mould); conditions: 100 ppm of active ingredient; gherkin plants, preventive spray, evaluated 4 to 5 days after inoculation
[8] = test system: Phakopsora pachyrhizi; assay: In vivo preventive test on Phakopsora test (soybeans); conditions: 10 ppm of active ingredient; soybean plants, preventive spray, evaluated 7 days after inoculation

Measured: efficacy

CCON=Cc1ccc(-c2ccccc2NC(=O)c2cccnc2C(F)F)cc1F (mixture of isomers) [Example I-46]
not listed: [8]
at least 70%: all other assays above

CON=Cc1ccc(-c2ccccc2NC(=O)c2cccnc2C(F)F)cc1F (mixture of isomers) [Example I-64]
not listed: [8]
at least 70%: all other assays above

O=C(Nc1ccccc1Oc1ccc(Cl)cc1Cl)c1cccnc1C(F)F [Example I-17]
not listed: [8]
at least 70%: all other assays above

CON=Cc1ccc(-c2ccccc2NC(=O)c2cccnc2C(F)F)cc1 [Example I-32]
not listed: [1] | [8]
at least 70%: all other assays above

O=C(Nc1ccccc1-c1ccc(F)cc1)c1cccnc1C(F)F [Example I-34]
not listed: [3] | [8]
at least 70%: all other assays above

O=C(Nc1ccccc1-c1ccc(Cl)c(F)c1)c1cccnc1C(F)F [Example I-35]
not listed: [8]
at least 70%: all other assays above

N#Cc1c(F)cc(-c2ccccc2NC(=O)c2cccnc2C(F)F)cc1F [Example I-36]
at least 70%: [3] | [4] | [5] | [6] | [7]

O=C(Nc1ccc(F)cc1-c1ccc(Cl)c(Cl)c1)c1cccnc1C(F)F [Example I-37]
at least 70%: [2] | [4] | [5] | [6] | [7]

O=C(Nc1ccccc1-c1cc(F)cc(F)c1)c1cccnc1C(F)F [Example I-38]
not listed: [8]
at least 70%: all other assays above

CCON=Cc1ccc(-c2ccccc2NC(=O)c2cccnc2C(F)F)cc1 [Example I-41]
not listed: [8]
at least 70%: all other assays above

O=C(Nc1ccccc1-c1ccc(F)c(F)c1)c1cccnc1C(F)F [Example I-42]
at least 70%: [3] | [4] | [5] | [6] | [7]

O=C(Nc1ccccc1-c1ccc(C(F)(F)F)c(F)c1)c1cccnc1C(F)F [Example I-43]
not listed: [1]
at least 70%: all other assays above

CCON=Cc1c(F)cc(-c2ccccc2NC(=O)c2cccnc2C(F)F)cc1F [Example I-50]
at least 70%: [3] | [4] | [5] | [6] | [7]

O=C(Nc1ccccc1-c1ccc(Cl)c(Cl)c1)c1cccnc1C(F)F [Example I-54]
not listed: [8]
at least 70%: all other assays above

CCOc1c(F)cc(-c2ccccc2NC(=O)c2cccnc2C(F)F)cc1F [Example I-57]
not listed: [8]
at least 70%: all other assays above

CCCOc1c(F)cc(-c2ccccc2NC(=O)c2cccnc2C(F)F)cc1F [Example I-58]
not listed: [8]
at least 70%: all other assays above

CCCCOc1c(F)cc(-c2ccccc2NC(=O)c2cccnc2C(F)F)cc1F [Example I-59]
not listed: [8]
at least 70%: all other assays above

CC(C)(C)C#Cc1ccc(-c2ccccc2NC(=O)c2cccnc2C(F)F)cc1 [Example I-62]
not listed: [1] | [8]
at least 70%: all other assays above

O=C(Nc1ccccc1-c1ccc(C(F)(F)F)c(Cl)c1)c1cccnc1C(F)F [Example I-63]
not listed: [8]
at least 70%: all other assays above

O=C(Nc1ccccc1-c1ccc(F)c(Cl)c1)c1cccnc1C(F)F [Example I-66]
not listed: [8]
at least 70%: all other assays above

CCON=Cc1ccc(-c2ccccc2NC(=S)c2cccnc2C(F)F)cc1 [Example I-67]
not listed: [1] | [8]
at least 70%: all other assays above

FC(F)c1ncccc1C(=S)Nc1ccccc1-c1ccc(C(F)(F)F)c(Cl)c1 [Example I-68, N-[3′-chloro-4′-(trifluoromethyl)biphenyl-2-yl]-2-(difluoromethyl)pyridine-3-carbothioamide]
not listed: [8]
at least 70%: all other assays above

Fc1ccc(-c2ccccc2NC(=S)c2cccnc2C(F)F)cc1F [Example I-73]
at least 70%: [2] | [3] | [4] | [6] | [7]

COC(=N)c1c(F)cc(-c2cccc(F)c2NC(=S)c2cccnc2C(F)F)cc1F [Example I-74]
not listed: [7] | [8]
at least 70%: all other assays above

CON=Cc1c(F)cc(-c2ccccc2NC(=S)c2cccnc2C(F)F)cc1F [Example I-76]
at least 70%: [2] | [3] | [4] | [6] | [7]

Reference: patent US20190023658A1, “SUBSTITUTED 2-DIFLUOROMETHYL-NICOTIN(THIO)CARBOXANILIDE DERIVATIVES AND THEIR USE AS FUNGICIDES” (Bayer CropScience Aktiengesellschaft, priority 2015, published 2019)
